# Measurements taken from paper PMC10067601, “Identification of a peptide ligand for human ALDH3A1 through peptide phage display: Prediction and characterization of protein interaction sites and inhibition of ALDH3A1 enzymatic activity” (Frontiers in Molecular Biosciences, 2023).
# These are yes or no findings as the source states them, for the method shown. Some results given as binding are weak or reduced against the parent protein; the word gives no strength. Tags and fused reporters may be left off the sequences shown.
# T1: human recombinant ALDH3A1 (aldehyde dehydrogenase 3A1), fused with 6 histidines in its carboxyl end (human) (UniProt P30838)
# T1 sequence: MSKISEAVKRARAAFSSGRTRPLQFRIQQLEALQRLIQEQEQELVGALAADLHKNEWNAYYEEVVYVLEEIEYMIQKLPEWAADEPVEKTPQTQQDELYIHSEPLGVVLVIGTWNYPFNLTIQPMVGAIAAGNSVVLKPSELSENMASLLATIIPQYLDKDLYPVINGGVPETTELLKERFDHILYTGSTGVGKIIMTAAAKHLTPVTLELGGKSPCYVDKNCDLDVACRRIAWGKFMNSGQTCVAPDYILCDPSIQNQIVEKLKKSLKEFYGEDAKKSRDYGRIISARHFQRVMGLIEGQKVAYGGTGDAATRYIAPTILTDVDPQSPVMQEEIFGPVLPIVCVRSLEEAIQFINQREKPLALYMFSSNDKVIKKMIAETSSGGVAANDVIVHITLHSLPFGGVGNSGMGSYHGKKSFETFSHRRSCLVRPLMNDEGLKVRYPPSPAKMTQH
# Target: T1, human recombinant ALDH3A1 (aldehyde dehydrogenase 3A1), fused with 6 histidines in its carboxyl end (human)
# Experiment: phage display panning; ALDH3A1 (75 μg) coated on a Petri dish in 0.1 M NaHCO3 pH 8.6, blocked with BSA; 4 × 10^10 phages of the 12-mer library in TBST, 60 min at RT; elution with 0.2 M glycine-HCl pH 2.2; three rounds of panning; 33 plaques sequenced; only the target purified
row,Binder,binding
1,WPTYVSPFRSPP [peptide … (P1) displayed on M13 phage],binds
2,WPTSLTSAQFLF,binds
3,ALHPLTNRHYAT,binds
4,TPFPFAPLGRPP,binds
